The other results are listed elsewhere or left out. Small differences around the control level are noise.
Experiments:
[1] = test system: ppGalNAc-T3 sensor; assay: T3 sensor activation Q score (MG/GFP ratio z-score vs DMSO controls) (SD units); higher = more sensor activation (inhibition of ppGalNAc-T3 glycosylation); conditions: HEK293 sensor cells; 10 µM; 6 h
Procedure: (§1)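 Cells were treated with compound at 10 uM for 6 h, then MG/GFP ratio was read by flow cytometry (10,000 cells per well, duplicate wells). Q = (R - R_neg)/SD_neg relative to DMSO vehicle controls; the signal rises when the glycosyltransferase is inhibited.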

[2] = test system: ppGalNAc-T2 sensor; assay: T2 sensor activation Q score (MG/GFP ratio z-score vs DMSO controls) (SD units); higher = more sensor activation (inhibition of ppGalNAc-T2 glycosylation); conditions: HEK293 sensor cells; 10 µM; 6 h
Procedure: as §1

| Structure (SMILES) | T3 sensor activation Q score [1] | T2 sensor activation Q score [2] |
| --- | --- | --- |
| O=C(O)CNC(=O)Cc1ccccc1 | -0.27 | -0.54 |
| CCc1ccc(CN2CCN(c3ccccn3)CC2)cc1 | -1.07 | 0.365 |
| CC(=O)c1ccc(NC2=C(N3CCCC3)C(=O)c3ccccc3C2=O)cc1 | 0.125 | 0.175 |
| Nc1nnc(-c2ccc(Br)cc2)s1 | 0.18 | -0.105 |
| O=c1[nH]c(CSCCO)nc2c1C1(CCCCC1)Cc1ccccc1-2 | 0.49 | 0.28 |
| CC1CC(=O)Nc2cc([N+](=O)[O-])ccc2N1 (centres undefined) | -0.05 | -1.04 |
| O=C(O)c1cc(S(=O)(=O)N2CCCCC2)ccc1Br | 0.05 | -0.69 |
| COc1ccc(Br)cc1CN1CCc2ccccc2C1 | 0.2 | 1.67 |
| c1ccc(-c2ccc(CN3CCSCC3)cc2)cc1 | 0 | -0.03 |
| O=C(CC(O)(c1ccccc1)C(F)(F)C(F)F)c1cccs1 (centres undefined) | 0.815 | 0.185 |
| CCCCOc1ccc(C(=O)NN)cc1 | 0.45 | -0.355 |
| CN1CCCN(Cc2cccc(F)c2)CC1 | 1.45 | 0.055 |
| COc1ccc(CNCc2ccc(OC)cc2)cc1 | -0.28 | 1.74 |
| O=C(c1ccc(F)cc1)n1cnc2ccccc21 | -0.205 | -0.365 |
| O=S1(=O)CCC(N2CCCCC2)C1 (centres undefined) | 2.45 | 1.05 |
| Cc1ccc(S(=O)(=O)N(C)C)cc1N | -0.265 | 0.08 |
| COc1ccc(NC2=CC(=O)CCC2)c(OC)c1 | -0.765 | 0.89 |
| COc1ccccc1CNC(=O)c1ccccc1OC | 0.53 | 0.4 |
| O=S(=O)(Nc1ccc(F)cc1)c1ccc(F)cc1 | -0.245 | -0.555 |
| CCCC(O)=C1C(=O)CC(C)(C)CC1=NC(CC)CO (centres undefined) | -0.535 | -0.195 |
| O=S(=O)(NCCc1ccccc1)c1ccc(Cl)cc1 | 0.555 | -0.88 |
| O=C(COc1ccc(Cl)cc1Cl)Nc1ccccc1F | 0.27 | -0.395 |
| CC1(C)CC(=O)C=C(Nc2ccc(C(=O)O)cc2)C1 | -0.385 | -0.235 |

Quoted from the listing.
Cc1ccc(S(=O)(=O)N(C)C)cc1N | T2 sensor activation Q score [2]: 0.08
CCc1ccc(CN2CCN(c3ccccn3)CC2)cc1 | T2 sensor activation Q score [2]: 0.365

More records follow:

| Structure (SMILES) | T3 sensor activation Q score [1] | T2 sensor activation Q score [2] |
| --- | --- | --- |
| C=CCn1c(SC(C)CC)nc(O)cc1=O (centres undefined) | 0.675 | 0.245 |
| Cc1ccc(S(=O)(=O)Nc2c(C)cc(O)c(Br)c2C)cc1 | -0.525 | -0.835 |
| CC(=O)C(=C(C)O)c1nc2ccccc2[nH]1 | 1.05 | -0.83 |
| Cc1ccc(C(=O)Nc2ccc(C(=O)O)cc2)o1 | 0.12 | -0.195 |
| COc1cc(C)c(CN2CCc3ccccc3C2)cc1C | -0.31 | 0.135 |
| CCCC(NS(=O)(=O)c1ccc(C)cc1)C(=O)O (centres undefined) | -1.06 | -1.22 |
| CCOC(=O)Nc1nnc(-c2ccc(C)cc2)s1 | 0.005 | -0.34 |
| O=c1[nH]c2ccc(S(=O)(=O)NC3CCCC3)cc2[nH]1 | -0.66 | 0.05 |
| O=C1NC(=O)c2cc(-c3ccccc3)ccc21 | 2.8 | -0.705 |
| CC(=O)C1=C(O)C(=O)N(CCO)C1c1ccc(C)cc1 (centres undefined) | 0.045 | 0.31 |
| CCOc1ccc(NC(=O)Cc2ccccc2)cc1 | -0.23 | -0.29 |
| COc1ccccc1C(=O)Nc1ccc(C(=O)O)cc1 | -0.98 | -1.23 |
| COc1ccc(S(=O)(=O)N2CCCCC2)cc1 | 1.26 | -0.835 |
| CN(C)CCN(C)Cc1ccc(Cl)cc1Cl | 1.16 | 1.77 |
| O=C(Nc1ccc(Cl)cc1)c1ccc2nc3ccccc3nc2c1 | 0.115 | 0.625 |
| CC(=O)Nc1ccc(S(=O)(=O)N2CCCCC2)cc1 | 0.205 | -1.83 |
| Cc1cccc(N2CCN(Cc3cccs3)CC2)c1C | 0.235 | -0.24 |
| CN(C)CCN(C)Cc1cc([N+](=O)[O-])ccc1O | 0.155 | 0.04 |
| Cc1cc(-c2cc(C(=O)O)c3ccccc3n2)c(C)s1 | 1.26 | 0.395 |
| COc1ccc(S(=O)(=O)N2CCCCC2)cc1OC | 0.67 | -0.335 |
| c1ccc(CNn2cnnc2)cc1 | 1.1 | -0.08 |
| CC(=O)Nc1nonc1-c1ccccc1 | 0.085 | -1.16 |
| O=C(O)C#CCN1C(=O)c2ccccc2C1=O | 0.35 | -1.18 |

| Structure (SMILES) | T3 sensor activation Q score [1] | T2 sensor activation Q score [2] |
| --- | --- | --- |
| CC(C)(C)C(=O)Nc1ccc(Sc2ccc([N+](=O)[O-])cc2)cc1 | -0.12 | -0.74 |
| CC1CN(CC(O)COc2ccccc2C(C)(C)C)CC(C)O1 (centres undefined) | -0.12 | -0.76 |
| CN1CCc2c(n(-c3ccccc3)c3ccccc23)C1=O | 0.65 | -0.095 |
| CC(C)Cc1ccc(-c2csc(N)n2)cc1 | -0.195 | 0.135 |
| Nc1ccc(Sc2nc3ccccc3s2)c(Cl)c1 | -0.18 | 0.215 |
| Nc1ccc(C(=O)c2ccc3c(c2)OCCO3)cc1N | 1.25 | 0.435 |
| CN1CCCN(Cc2ccc(F)cc2F)CC1 | -0.07 | 0.065 |
| NC(=O)COc1cccc2cccnc12 | 0.145 | 1.01 |
| CCCCOc1ccc(CC(=N)N)cc1Cl | -0.525 | -0.17 |
| Fc1ccccc1CN1CCN(c2ncccn2)CC1 | 0.725 | -0.71 |
| O=C(C(c1ccccc1)c1ccccc1)N1CCCC1 | -0.3 | -1.25 |
| CC(NS(=O)(=O)c1ccc(Br)cc1)c1ccccc1 (centres undefined) | 0.26 | -0.92 |
| Cc1ccccc1OCC(=O)Nc1cc(Cl)ccc1Cl | 0.375 | -0.065 |
| CN(C)C=NS(=O)(=O)c1ccccc1 | 0.615 | 0.445 |
| O=C(Nc1ccc(Cl)c(Cl)c1)[C@@H]1C[C@@H]1c1ccccc1 | 0.11 | 0.83 |
| CN1CCCN(Cc2cccc(Oc3ccccc3)c2)CC1 | -0.11 | 1.01 |
| CS(=O)(=O)N(Cc1ccccc1)c1ccc(C(=O)O)cc1 | -0.585 | -0.255 |
| COc1ccc(OC)c(S(=O)(=O)c2ccc(Br)cc2)c1 | 0 | 0.785 |
| O=C(Nc1ccccc1)NC1CCCCC1 | 1.08 | -0.355 |
| O=C(Nc1ccc(Br)cc1)[C@@H]1C2C=CC(C2)[C@@H]1C(=O)O (some centres undefined) | -0.495 | -1.69 |
| NS(=O)(=O)c1ccc(NC(=O)c2ccc(-c3ccccc3)cc2)cc1 | -0.565 | 0.035 |

From the supplement of paper PMC5407854, “Inhibitor of ppGalNAc-T3-mediated O-glycosylation blocks cancer cell invasiveness and lowers FGF23 levels” (eLife, 2017)
